Assay results taken from patent US20170320956A1.
No constants are given. Whether binding was seen depends on the method and setting. Some binding calls cover weakened binding; strength is not graded here.

Protein sequences, listed by entry. Tags and fused reporters are not part of them. Lines headed by an entry give the natural chain unless they say otherwise; changes in a name come on top. Chains listed by the source or under a name are the forms on record and can include a tag or linker.
recombinant cynomolgus monkey LIGHT, FLAG-tagged extracellular domain (cynomolgus (Macaca fascicularis)) (E9NVF7, form named): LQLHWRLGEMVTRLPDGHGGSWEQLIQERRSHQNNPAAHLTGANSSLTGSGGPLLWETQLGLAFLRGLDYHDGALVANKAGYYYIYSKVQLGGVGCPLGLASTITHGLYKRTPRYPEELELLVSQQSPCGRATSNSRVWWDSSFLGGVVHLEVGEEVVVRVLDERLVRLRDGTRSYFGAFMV

B1: 01C02 in human IgG4(PE) format (antibody, V domains shown)
VH: QVQLVQSGAEVQKPGASVMVSCKASGYTFTYYGISWVRQAPGQGLEWMGWISANSGNTNYAQKFQGRVTMTTDTSTNTAYMELRSLRTDDTAVYYCAKGGVAVLEYWGQGTLVTVSS
VL: DIQLTQSPSFLSASVGDRVTITCWASQGISSYLAWYQQKPGKAPNLLIYVASTLQSGVPSRFSGSGSGTEFTLTISSLQPEDFATYYCQQLKIYPLTFGGGTKVEIK
B2: 01C06 in human IgG4(PE) format (antibody, V domains shown)
VH: QVQLVESGGGLVKPGGSLRLSCAASGFTFSDYYMNWIRQAPGKGLEWIADISSRDNTIYYADSVKGRFTISRDNAKNSLYLQMNSLRAEDTAVYYCARERGFGDYFGMDVWGQGTTVTVSS
VL: AIQLTQSPSSLSASVGDRVTIACRASQDISSALAWFRQTPGKTPKLLIYDASSLESGVPSRFLGSGSGTDFTLTISSLQPEDFAIYYCQQFNTYPLTFGGGTKVEIK
B3: 31A10 in human IgG4(PE) format (antibody, V domains shown)
VH: QVQLQESGPGLVKPSGTLSLTCAVSGGSISSINWWNWVRQPPGKGLEWIGEVSHSGITNYNPSLKSRVTMSVDKAKNQFSLKLNSVTAADTAVYYCARERAVADYHGMDVWGQGTTVTVSS
VL: AIQLTQSPSSLSASVGDRVTITCRASQGISSALAWFQQKPGKPPKLLIFDASDLESGVSSRFSGSGSGTDFTLTISSLQPGDFATYYCQQFNSYPITFGQGTRLEIK
B4: 13H04 in human IgG4(PE) format (antibody, V domains shown)
VH: QVQLVQSGAEVKKPGASVKVSCKASGYTFTSYGISWVRQAPGQGLEWMGWISAHNANTNYAQKLQGRVTMTTDTSTSTAYMELRSLRSDDTAMYYCARLYRNWFDPWGQGTLVTVSS
VL: QSALTQPASVSGSPGQSITISCTGTSSDVGGYNYVSWYQQHPGKAPKLMIYDVSKRPSGVSNRFSGSKSGNTASLTISGLQAEDEADYYCCSYAGSSTLLFGGGTKLTVL
B5: 98C07 in human IgG4(PE) format (antibody, V domains shown)
VH: QVQLVESGGGLVKPGGSLRLSCAASGFTFSDYYMSWIRQAPGKGLEWVSYISRSSFIYYSESVKGRFTISRDNAKNSLYLQMNSLRAEDTAVYYCARWELSPFDYWGQGTLVTVSS
VL: DIQMTQSPSSLSASVGDRVTITCRASQGISNYLAWFQQKPGKAPKSLIYAASSLQSGVPSKFSGSGSGTDFTLTISSLQPEDFATYFCQQYNTYPFTFGPGTKVDIK
B6: 31A10 (purified from hybridoma supernatant) (antibody, V domains shown)
VH: B3 VH
VL: B3 VL

What was measured:
[1] = target: recombinant cynomolgus monkey LIGHT, FLAG-tagged extracellular domain (cynomolgus (Macaca fascicularis)) (UniProt E9NVF7); assay: SPR
[2] = target: recombinant cynomolgus monkey LIGHT, FLAG-tagged extracellular domain (cynomolgus (Macaca fascicularis)) (UniProt E9NVF7); assay: SPR ProteOn, mAb captured on anti-human IgG, 25 C, apparent affinity
[3] = target: recombinant cynomolgus monkey LIGHT, FLAG-tagged extracellular domain (cynomolgus (Macaca fascicularis)) (UniProt E9NVF7); assay: SPR ProteOn, mAb captured on anti-human IgG, 37 C
[4] = target: recombinant cynomolgus monkey LIGHT, FLAG-tagged extracellular domain (cynomolgus (Macaca fascicularis)) (UniProt E9NVF7); assay: SPR ProteOn, mAb captured on anti-mouse IgG, LIGHT 256 nM, 25 C, apparent affinity

Binder | binding [1] | binding [2] | binding [3] | binding [4]
B1 | binds | binds | binds | –
B2 | – | binds | – | –
B3 | binds | – | binds | –
B4 | binds | – | – | –
B5 | binds | – | – | –
B6 | – | – | – | binds
